Reference: PubChem BioAssay AID1487 (National Center for Advancing Translational Sciences (NCATS), 2009)
The list shows a part of the results. The main result of the screen is listed elsewhere. These columns were measured beside it and carry no call. Compounds called inactive in the main read-out are mostly missing here. Words in brackets tell the shape of the fitted curve; partial curves, single points and poor fits give uncertain potencies.

Assay: qHTS Assay for Modulators of Lamin A Splicing
Conditions: HeLa LMNA splicing GFP/RFP minigene ratio, 48 h
Outline: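 S3 HeLa cells stably expressing lamin A-EGFP splicing minigene plus DsRed2, 600 cells/well, 48 h compound exposure at 37C. Laser-scanning cytometry; analysed as GFP (500-530 nm)/RFP (575-640 nm) total intensity ratio; 0.5% DMSO vehicle.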

[1] = measured here: GFP splicing reporter channel
[2] = measured here: RFP viability control channel

| Compound | AC50 [1] | AC50 [2] |
| --- | --- | --- |
| COc1ccc(-c2noc(Cc3ccc(Cl)cc3)n2)cc1OC | 15.8 µM [rising, single point] | 28.2 µM [rising, single point] |
| Fc1ccccc1-c1ccc(/C=N/Nc2nc3ccccc3[nH]2)o1 |  | 3.16 µM [rising, partial curve] |
| CC(C)(C)NC(=O)CSCc1ccc(Br)cc1 |  | 0.282 µM [falling, full curve, poor fit] |
| Cc1cccc(/C(N)=N/OC(=O)N2CCOCC2)c1 | 14.1 µM [falling, single point] | 28.2 µM [falling, single point] |
| CC(=O)Nc1ccc(S(=O)(=O)N2CCN(C3CCCCCCC3)CC2)cc1 | 14.1 µM [rising, partial curve, poor fit] | 11.2 µM [rising, single point] |
| O=C(Nc1nc(-c2ccccc2)cs1)C1COc2ccccc2O1 (stereo unspecified) |  | 35.5 µM [rising, single point] |
| CC(c1nccs1)N(C)C(=O)CCc1nnc(CCc2ccccc2)o1 (stereo unspecified) |  | 1.26 µM [falling, full curve, poor fit] |
| NC(=S)N/N=C/c1ccc(-c2cccc([N+](=O)[O-])c2)o1 | 35.5 µM [falling, single point] | 35.5 µM [falling, single point] |
| O=C(CNC(=O)c1ccccc1F)OCc1csc(-c2ccccc2)n1 |  | 35.5 µM [rising, single point] |
| CSC(=S)N/N=C/c1ccc(Br)cc1 |  | 3.55 µM [rising, full curve] |
| Fc1ccc(NC(=S)Nc2ccc(Br)cc2)cc1 | 35.5 µM [rising, single point] | 35.5 µM [rising, single point] |
| CCOC(=O)N1CCN(CCC(=O)Nc2ccc(Br)cc2)CC1 |  | 35.5 µM [rising, single point] |
| COC(=O)Cc1ccc(NC(=S)N2CCN(c3ccc(OC)cc3)CC2)cc1 |  | 14.1 µM [rising, single point] |
| COC(=O)CSc1nc(-c2ccccc2)cc(-c2ccco2)c1C#N | 35.5 µM [rising, single point] |  |
| Cc1ccc(-n2nnnc2SCC(=O)NC(=O)Nc2ccc3c(c2)OCCO3)cc1 | 17.8 µM [rising, single point] |  |
| CCN(CC)S(=O)(=O)c1ccc2oc(C(=O)NCc3ccc(C)cc3)c(C)c2c1 |  | 14.1 µM [rising, single point] |
| COC(=O)c1cc(NC(=O)Nc2ccccc2)ccc1Cl |  | 3.55 µM [rising, full curve, poor fit] |
| CCn1cnc2sc(C(=O)N(Cc3ccc(N(C)C)cc3)Cc3ccco3)c(C)c2c1=O |  | 8.91 µM [rising, partial curve] |
| Cc1nn(-c2ccccc2)c(C)c1C(=O)OCC(=O)c1c(N)n(CC(C)C)c(=O)n(C)c1=O | 1.41 µM [rising, partial curve] | 5.62 µM [rising, partial curve] |
| O=C(O)CCN1CC2([N+](=O)[O-])CC=C(OCCO)C([N+](=O)[O-])(C1)C2 (stereo unspecified) | 2.82 µM [rising, partial curve, poor fit] | 3.55 µM [rising, partial curve, poor fit] |
| COc1ccc(C(=O)Nc2ccc(-c3ccc(C)o3)cc2)cc1S(=O)(=O)N1CCOCC1 |  | 2.24 µM [rising, full curve, poor fit] |
| COc1cccc(C(=O)Nc2ccc3nc(SCC(=O)N4CCOCC4)sc3c2)c1 |  | 31.6 µM [rising, single point] |
| Cn1c(=O)n(C)c2cc(NS(=O)(=O)c3ccc(F)cc3)ccc21 | 5.62 µM [falling, partial curve, poor fit] |  |
| CCN1CCN(C(C)C(=O)Nc2c(C)n(C)n(-c3ccccc3)c2=O)CC1 (stereo unspecified) |  | 0.0355 µM [rising, full curve, poor fit] |
| Cc1ccc(S(=O)(=O)NC(=O)Nc2cc(C)ccc2F)cc1 |  | 0.178 µM [falling, full curve, poor fit] |
| CCCn1c2c(c(O)c(C(=O)Nc3ncccc3O)c1=O)CCCC2 |  | 15.8 µM [rising, partial curve, poor fit] |
| CCN(CC)c1ccc(/C=N/NC(=O)C(O)(c2ccccc2)c2ccccc2)o1 | 35.5 µM [rising, single point] | 35.5 µM [rising, single point] |

| Compound | AC50 [1] | AC50 [2] |
| --- | --- | --- |
| CSCCC(NS(=O)(=O)c1ccc2c(c1)oc(=O)n2C)C(=O)N1CCN(c2cc(C)ccc2C)CC1 (stereo unspecified) | 12.6 µM [falling, partial curve, poor fit] | 11.2 µM [falling, partial curve, poor fit] |
| COc1ccc(C2CC(=O)NC(NC(=O)c3ccc(Br)cc3)=N2)c(OC)c1OC (stereo unspecified) | 0.1 µM [falling, partial curve] | 0.000708 µM [falling, full curve] |
| Cc1cccc(-n2nnnc2SCC(=O)c2cc(C)n(CC3CCCO3)c2C)c1 (stereo unspecified) |  | 12.6 µM [rising, single point] |
| Cc1ccccc1CS(=O)(=O)c1nnc([C@H](CC(C)C)NC(=O)OC(C)(C)C)o1 |  | 35.5 µM [rising, single point] |
| COc1ccc(-c2nc(C)sc2CC(=O)O)cc1OC | 0.1 µM [rising, full curve, poor fit] | 0.126 µM [rising, single point] |
| CC(C)OC(=O)CSc1nc(N)c(C#N)c(-c2cccs2)c1C#N | 11.2 µM [rising, partial curve, poor fit] | 11.2 µM [rising, partial curve, poor fit] |
| O=C(/C=C\c1ccc2c(c1)OCO2)NC1CC(=O)N(c2ccc(Cl)cc2)C1 (stereo unspecified) | 12.6 µM [rising, partial curve] |  |
| Cn1cc([N+](=O)[O-])c(C(=O)Nc2cc(Oc3ccccc3)cc([N+](=O)[O-])c2)n1 | 35.5 µM [falling, single point] | 0.2 µM [rising, full curve, poor fit] |
| O=C(Nc1ccc(N2CCCC2)c(Cl)c1)c1cccc(-c2cc3ccccc3oc2=O)c1 |  | 0.00891 µM [rising, full curve, poor fit] |
| CCN(Cc1ccccc1)C(=O)CCc1nc(-c2ccc(C)cc2)no1 | 35.5 µM [rising, single point] | 35.5 µM [rising, single point] |
| CCN(CC)S(=O)(=O)c1cccc(C(=O)N[C@H](C(=O)Nc2nc3ccc(F)cc3s2)C(C)C)c1 |  | 5.01 µM [rising, partial curve] |
| Cc1cc(NC(=O)COC(=O)c2ccccc2S(=O)(=O)N(C)c2ccccc2)no1 |  | 14.1 µM [rising, partial curve, poor fit] |
| O=S(=O)(Nc1ccc(N2CCCCC2)cc1)c1ccc(F)c(F)c1 | 10 µM [rising, partial curve, poor fit] | 15.8 µM [rising, partial curve] |
| Cc1ccnc2nc(C(=O)Nc3nc(-c4ccccn4)cs3)nn12 |  | 35.5 µM [falling, single point] |
| O=C(C1CCCN(c2ncccn2)C1)N1CCc2ccccc21 (stereo unspecified) |  | 31.6 µM [rising, single point] |
| O=S(=O)(c1ccc(Cl)nc1)N1CCCc2ccccc21 |  | 11.2 µM [rising, single point] |
| CCCCc1nn2c(=O)cc(COC(=O)c3ccc(NC(=O)CCc4ccccc4)cc3)nc2s1 | 0.0794 µM [rising, full curve, poor fit] | 0.112 µM [rising, full curve, poor fit] |
| O=C1[O][Bi][O]c2ccccc21 |  | 0.0501 µM [rising, full curve, poor fit] |
| CCn1c(COc2ccc(C)cc2)nnc1SCC(=O)C(C)(C)C | 35.5 µM [rising, single point] | 35.5 µM [rising, single point] |
| Cc1nn(C)c(C(=O)NC2C3CC4CC(C3)CC2C4)c1Cl (stereo unspecified) |  | 35.5 µM [rising, single point] |
| CCCC(C)NC(=O)COc1ccc(Sc2ccc(OCC(=O)NC(C)CCC)cc2)cc1 (stereo unspecified) |  | 5.01 µM [rising, full curve] |
| O=C(N/N=C/c1cc2c3c(c1O)CCCN3CCC2)c1ccccc1O | 0.316 µM [rising, full curve, poor fit] | 0.708 µM [rising, partial curve, poor fit] |
| CC1(C)CCCC2=C1CC1C(=O)N(Cc3cccnc3)C(=O)C1C2 (stereo unspecified) |  | 35.5 µM [rising, single point] |
| CC(CCc1ccccc1)NC(=O)COC(=O)c1ccc(S(C)(=O)=O)c([N+](=O)[O-])c1 (stereo unspecified) | 10 µM [falling, partial curve] | 35.5 µM [falling, partial curve, poor fit] |
| CC(C)(C)c1ccc(/C=C/C(=O)Nc2ncccn2)cc1 | 4.47 µM [rising, partial curve, poor fit] | 22.4 µM [rising, partial curve, poor fit] |
| CC(C)c1ccc(N(CC(=O)NCc2ccc(F)cc2)C(=O)c2csnn2)cc1 | 0.891 µM [falling, full curve, poor fit] | 0.891 µM [falling, full curve, poor fit] |
| O=C(c1ccco1)N1CCN(c2ncnc3c2nnn3Cc2ccccc2Cl)CC1 | 6.31 µM [rising, partial curve, poor fit] | 12.6 µM [rising, partial curve] |

Entries of single compounds as entered above.
CCN(Cc1ccccc1)C(=O)CCc1nc(-c2ccc(C)cc2)no1 reads AC50 [1]: 35.5 µM [rising, single point]; AC50 [2]: 35.5 µM [rising, single point]
O=S(=O)(Nc1ccc(N2CCCCC2)cc1)c1ccc(F)c(F)c1 reads AC50 [1]: 10 µM [rising, partial curve, poor fit]; AC50 [2]: 15.8 µM [rising, partial curve]
CCCCc1nn2c(=O)cc(COC(=O)c3ccc(NC(=O)CCc4ccccc4)cc3)nc2s1 reads AC50 [1]: 0.0794 µM [rising, full curve, poor fit]; AC50 [2]: 0.112 µM [rising, full curve, poor fit]
